{"source": "patent US7632827B2", "about": "“Anti-cancer phosphine containing [AuIIIm(CNC)mL]n+ complexes and derivatives thereof and methods for treating cancer using such compositions” (The University of Hong Kong, priority 2006, dated 2009)", "tested_on": "100-base pair DNA ladder", "experiment": "Gel mobility shift assay (DNA intercalation)", "format": "binding", "settings": "1.5% agarose gel, DNA 50 μM bp-1", "method": "A gel mobility shift assay was employed to determine the intercalating property 3d [E. C. Long, J. K. Barton, Acc. Chem. Res. 1990, 23, 271] to evaluate the effect 3d, had upon the DNA binding affinities. A 100-base pair DNA ladder treated with 3d, or ethidium bromide (EB, DNA intercalator) as well as a control were resolved by agarose gel electrophoresis. Briefly, gel electrophoresis of 100-bp DNA ladder on a 1.5% (w/v) agarose gel was performed showing the mobility of DNA (50 μM bp-1) in the absence or presence of ethidium bromide (EB), or compound 3d. […] The bound DNA would have lower mobility compared to that of the free DNA.", "note": "For at least one compound, name, drawing or mass did not settle the structure.", "data": [{"smiles": "CC[n+]1c(-c2ccccc2)c2cc(N)ccc2c2ccc(N)cc21", "note": "[EB, ethidium bromide, reference compound]", "values": [{"measurement": "DNA intercalation (tailing effect in gel)", "value": "exhibited a tailing effect"}]}]}
